From EP0106571A2, “Prophylactic substance or composition” (priority 1982, dated 1984)
For at least one compound, name, drawing or mass did not settle the structure.

Test system: MG63 Human osteogenic sarcoma cells
Assay: Colony formation after 7 days with two additions of fatty acid
Type: cell-based
Experimental: MG63 Human osteogenic sarcoma cells were seeded in culture flasks as described in Examples 4 and 5. 2,000 cells were seeded in each flask. Duplicate sets of flasks were used for each of the fatty acids tested. The following fatty acids dissolved in standard growth medium were added to the cells in culture, after allowing 2 days for cell attachment, and again after a further 3 days. Each culture therefore had only 2 additions of the relevant fatty acid. The cells were stained and examined at the end of 7 days in culture: • 1. Culture medium only - control. • 2. 5, 10, 20, 40, 60, 80 and 100µg oleic acid respectively /ml culture medium. […] 5; 10, 20, 40, 60, 80 and 100µg LA respectively /ml culture medium. • 4. 5, 10, 20, 40, 60, 80 and […] ALA respectively ./ml culture. medium. • 5. 5, 10, 20, 40, 60, 80 and 100µg/ml AA respectively /ml culture medium. • 6. 5, 10, 20, 40, 60, 80 and 100µg/ml EPA respectively /ml culture medium. • ..7.

Compound: CC/C=C\C/C=C\C/C=C\C/C=C\C/C=C\CCCC(=O)O [EPA, eicosapentaenoic acid]
- suppressive action on proliferation and colony formation (dose series 5 to 100 µg/ml, 2 additions): almost equal, progressive, suppressive action
- cell growth and colony formation (levels of supplementation above 40 µg/ml culture medium, 2 additions): completely suppressed
- cells or colonies found on microscopic examination (supplementation levels between 40 and 100 µg/ml): Not a single cell or colony of cells could be found
